# In patent publication US10064942B2, “Copper-cysteamine and methods of use” (THE BOARD OF REGENTS, THE UNIVERSITY OF TEXAS SYSTEM, priority 2013, dated 2018):
# Test: Singlet oxygen measurement by RNO-imidazole method under X-ray
substance,measurement,setting,value
Cu3Cl(SR)2 wherein R is —CH2CH2NH2 [Cu-Cy],singlet oxygen formation relative to PPIX,X-ray 8 Gy,six-times greater than PPIX
same,singlet oxygen formation as measured by the loss in RNO absorption,"X-ray doses 0 to 8 Gy, 1 mg sample in 3 mL RNO-ID solution, versus control",almost linear relationship of increasing singlet oxygen formation
